Where two headings read alike, the source gives them in different places. At least one compound was matched to its structure with a doubt left. Numbered stars: 1 amine (or outer) side, 2 acyl side, 3 side chain; on linkers, the order of the positions; unused ones are H or OH. Square brackets hold non-standard residues; d marks the D form. Side chains are listed from the residue outwards. Peptide text beside a SMILES is read from it. * marks the point of attachment. C20 diacid = O=C(O)CCCCCCCCCCCCCCCCCCC(=O)*; γGlu = O=C(O)[C@H](CCC(=O)[*:2])N[*:1]; Ac4c = NC1(C(=O)O)CCC1; AEEA = NCCOCCOCC(=O)O
How the values were obtained:
human GLP-1 R = molecular target: T1, human GLP-1 R (Homo sapiens, UniProt P43220); experiment: Human GLP-1 receptor (GLP-1-R) activity assay, cAMP induction (AlphaScreen) in HEK293 cells; format: cell-based; settings: Table 2b (most comprehensive data); average EC50; cAMP in HEK293 cells expressing human GLP-1 R; read-out: GLP1 R (EC50 in nM)
T1 construct: expressed in transfected cells

Protein sequences, listed by entry. Tags and fused reporters are not part of them. Residues count along the entry.
UniProt P43220, 24-463: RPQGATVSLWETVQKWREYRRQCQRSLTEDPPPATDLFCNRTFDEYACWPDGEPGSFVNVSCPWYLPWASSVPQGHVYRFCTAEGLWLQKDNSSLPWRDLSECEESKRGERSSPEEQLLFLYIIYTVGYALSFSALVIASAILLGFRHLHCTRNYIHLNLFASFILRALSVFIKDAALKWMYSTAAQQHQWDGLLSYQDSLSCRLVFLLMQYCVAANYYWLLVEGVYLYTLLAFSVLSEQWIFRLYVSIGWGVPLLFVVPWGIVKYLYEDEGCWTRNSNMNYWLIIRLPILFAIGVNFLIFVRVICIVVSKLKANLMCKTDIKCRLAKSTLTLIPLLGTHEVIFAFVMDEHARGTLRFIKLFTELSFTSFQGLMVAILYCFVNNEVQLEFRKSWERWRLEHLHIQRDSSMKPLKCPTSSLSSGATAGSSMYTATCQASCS
UniProt P47871, 26-477: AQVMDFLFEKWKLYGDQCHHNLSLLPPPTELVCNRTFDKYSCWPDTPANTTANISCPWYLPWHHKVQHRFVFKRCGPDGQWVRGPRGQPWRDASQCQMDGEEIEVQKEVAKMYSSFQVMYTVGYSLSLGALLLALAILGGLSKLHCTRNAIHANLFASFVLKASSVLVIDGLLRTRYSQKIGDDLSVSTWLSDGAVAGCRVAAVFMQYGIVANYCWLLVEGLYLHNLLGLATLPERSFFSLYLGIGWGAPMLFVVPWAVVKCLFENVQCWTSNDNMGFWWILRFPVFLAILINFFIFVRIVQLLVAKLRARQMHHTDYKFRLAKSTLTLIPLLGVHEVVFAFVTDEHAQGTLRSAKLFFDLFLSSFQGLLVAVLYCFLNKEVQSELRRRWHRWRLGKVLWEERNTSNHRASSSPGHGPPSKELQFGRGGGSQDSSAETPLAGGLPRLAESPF

human GIP R = molecular target: T2, human GIP R (Homo sapiens, UniProt P48546); experiment: Human GIP receptor (GIP-R) activity assay, cAMP induction (AlphaScreen) in HEK293 cells; format: cell-based
T2 construct: expressed in transfected cells
T2 sequence (P48546 22-466): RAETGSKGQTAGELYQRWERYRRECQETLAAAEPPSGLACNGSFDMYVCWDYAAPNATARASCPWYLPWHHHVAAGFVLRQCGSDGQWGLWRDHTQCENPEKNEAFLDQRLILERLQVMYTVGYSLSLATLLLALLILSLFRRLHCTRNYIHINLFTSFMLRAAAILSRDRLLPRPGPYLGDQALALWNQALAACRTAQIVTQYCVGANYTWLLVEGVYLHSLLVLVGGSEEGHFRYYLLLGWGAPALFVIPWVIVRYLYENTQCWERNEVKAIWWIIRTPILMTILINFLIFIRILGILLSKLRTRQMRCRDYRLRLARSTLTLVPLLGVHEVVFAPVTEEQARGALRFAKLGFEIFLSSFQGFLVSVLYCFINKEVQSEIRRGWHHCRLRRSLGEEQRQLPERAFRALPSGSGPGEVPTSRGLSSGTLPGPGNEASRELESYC

human GCG R = human GCG R (Homo sapiens, UniProt P47871); settings: read-out: GCG R (EC50 in nM); Table 2b (most comprehensive data); average EC50; cAMP in HEK293 cells expressing human GCG R

| SMILES | EC50 (human GLP-1 R) [nM] | EC50 (human GIP R; Table 2b (most comprehensive data); average EC50; cAMP in HEK293 cells expressing human GIP R; read-out: GIP R (EC50 in nM)) [nM] | EC50 (human GCG R) [nM] | EC50 (human GIP R; read-out: GIP R (EC50 in nM); Table 2b (most comprehensive data); average EC50; cAMP in HEK293 cells expressing human GIP R) [nM] |
| --- | --- | --- | --- | --- |
| CC[C@H](C)[C@H](NC(=O)[C@H](CO)NC(=O)[C@H](Cc1ccc(O)cc1)NC(=O)[C@H](CC(=O)O)NC(=O)[C@H](CO)NC(=O)[C@@H](NC(=O)[C@H](Cc1ccccc1)NC(=O)[C@@H](NC(=O)CNC(=O)[C@H](CCC(N)=O)NC(=O)C1(NC(=O)[C@@H](N)Cc2ccc(O)cc2)CCC1)[C@@H](C)O)[C@@H](C)O)C(=O)N[C@@H](Cc1ccc(O)cc1)C(=O)N[C@@H](CC(C)C)C(=O)N[C@@H](CC(=O)O)C(=O)N[C@@H](CCCCN)C(=O)N[C@@H](CCCCNC(=O)COCCOCCNC(=O)COCCOCCNC(=O)CC[C@H](NC(=O)CCCCCCCCCCCCCCCCCCC(=O)O)C(=O)O)C(=O)N[C@@H](C)C(=O)N[C@@H](CCC(N)=O)C(=O)N[C@@H](CCCNC(=N)N)C(=O)N[C@@H](C)C(=O)N[C@@H](Cc1ccccc1)C(=O)N[C@H](C(=O)N[C@@H](CCC(=O)O)C(=O)N[C@@H](Cc1c[nH]c2ccccc12)C(=O)N[C@@H](CC(C)C)C(=O)N[C@@H](CC(C)C)C(=O)N[C@@H](C)C(=O)N[C@@H](CCC(N)=O)C(=O)NCC(=O)N1CCC[C@H]1C(=O)N[C@@H](CO)C(=O)N[C@@H](CO)C(=O)NCC(=O)N[C@@H](C)C(=O)N1CCC[C@H]1C(=O)N1CCC[C@H]1C(=O)N1CCC[C@H]1C(=O)N[C@@H](CO)C(N)=O)C(C)C [Compound 52] (H-Y[Ac4c]QGTFTSDYSIYLDKK([AEEA-AEEA-γGlu-C20 diacid])AQRAFVEWLLAQGPSSGAPPPS-NH2) | 0.0096 | 0.016 | 1.8 | – |
| CC[C@H](C)[C@H](NC(=O)[C@H](CO)NC(=O)[C@H](Cc1ccc(O)cc1)NC(=O)[C@H](CC(=O)O)NC(=O)[C@H](CO)NC(=O)[C@@H](NC(=O)[C@H](Cc1ccccc1)NC(=O)[C@@H](NC(=O)CNC(=O)[C@H](CCC(N)=O)NC(=O)C(C)(C)NC(=O)[C@@H](N)Cc1ccc(O)cc1)[C@@H](C)O)[C@@H](C)O)C(=O)N[C@@H](Cc1ccc(O)cc1)C(=O)N[C@@H](CC(C)C)C(=O)N[C@@H](CCC(=O)O)C(=O)N[C@@H](CCCCN)C(=O)N[C@@H](CCCCN)C(=O)N[C@@H](C)C(=O)N[C@@H](C)C(=O)N[C@@H](Cc1c[nH]cn1)C(=O)N[C@@H](CC(=O)O)C(=O)N[C@@H](Cc1ccccc1)C(=O)N[C@H](C(=O)N[C@@H](CCC(=O)O)C(=O)N[C@@H](Cc1c[nH]c2ccccc12)C(=O)N[C@@H](CC(C)C)C(=O)N[C@@H](CC(C)C)C(=O)N[C@@H](CO)C(=O)N[C@@H](C)C(N)=O)C(C)C [Compound 15] (HELM PEPTIDE1{Y.[Aib].Q.G.T.F.T.S.D.Y.S.I.Y.L.E.K.K.A.A.H.D.F.V.E.W.L.L.S.A.[am]}$$$$V2.0) | – | – | – | 0.022 |

Source: US20210363213A1, “GLUCAGON-GLP-1-GIP TRIPLE AGONIST COMPOUNDS” (priority 2013, published 2021)
